Assay [1] addresses T1, EFTUD2^115–580 (human) (UniProt Q15029).
T1 sequence: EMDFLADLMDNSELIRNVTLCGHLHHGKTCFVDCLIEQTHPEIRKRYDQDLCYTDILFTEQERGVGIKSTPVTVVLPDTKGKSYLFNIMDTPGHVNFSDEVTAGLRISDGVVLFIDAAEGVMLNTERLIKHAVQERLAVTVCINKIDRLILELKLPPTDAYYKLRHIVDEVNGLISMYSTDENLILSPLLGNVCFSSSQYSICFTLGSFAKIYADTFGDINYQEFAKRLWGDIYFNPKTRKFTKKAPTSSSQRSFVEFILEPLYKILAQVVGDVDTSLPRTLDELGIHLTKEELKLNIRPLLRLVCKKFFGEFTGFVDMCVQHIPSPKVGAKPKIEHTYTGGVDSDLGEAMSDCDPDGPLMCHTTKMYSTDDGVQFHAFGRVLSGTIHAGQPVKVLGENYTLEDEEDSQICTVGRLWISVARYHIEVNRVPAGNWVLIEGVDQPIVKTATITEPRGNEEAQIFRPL
Kind of assay: SEC; analytical SEC, Superdex 200 increase 3.2/300, 20 mM Tris-HCl pH 8.0, 200 mM NaCl, 1 mM DTT; 75 μg SNRNP200 variant with 1.5-fold molar excess of a GST-TSSC4 variant, or 30 μg GST-TSSC4 variant with equimolar PRPF8^Jab1ΔC, in 50 μl, 10 min on ice; fractions by SDS-PAGE; both purified.

Amino acid sequences for entries named in this document (tags omitted).
UniProt Q9Y5U2: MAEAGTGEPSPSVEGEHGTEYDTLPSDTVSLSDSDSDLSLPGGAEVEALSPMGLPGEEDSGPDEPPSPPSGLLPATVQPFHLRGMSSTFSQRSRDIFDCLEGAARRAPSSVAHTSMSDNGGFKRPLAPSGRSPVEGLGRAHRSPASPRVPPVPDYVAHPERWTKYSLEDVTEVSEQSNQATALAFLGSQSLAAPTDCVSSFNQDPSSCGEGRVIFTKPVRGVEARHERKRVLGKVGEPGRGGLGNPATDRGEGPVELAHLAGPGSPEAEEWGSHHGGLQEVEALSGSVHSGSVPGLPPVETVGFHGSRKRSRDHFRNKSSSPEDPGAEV

Assay [2] concerns the target T2, PRPF6^237–941 (human) (UniProt O94906).
T2 sequence: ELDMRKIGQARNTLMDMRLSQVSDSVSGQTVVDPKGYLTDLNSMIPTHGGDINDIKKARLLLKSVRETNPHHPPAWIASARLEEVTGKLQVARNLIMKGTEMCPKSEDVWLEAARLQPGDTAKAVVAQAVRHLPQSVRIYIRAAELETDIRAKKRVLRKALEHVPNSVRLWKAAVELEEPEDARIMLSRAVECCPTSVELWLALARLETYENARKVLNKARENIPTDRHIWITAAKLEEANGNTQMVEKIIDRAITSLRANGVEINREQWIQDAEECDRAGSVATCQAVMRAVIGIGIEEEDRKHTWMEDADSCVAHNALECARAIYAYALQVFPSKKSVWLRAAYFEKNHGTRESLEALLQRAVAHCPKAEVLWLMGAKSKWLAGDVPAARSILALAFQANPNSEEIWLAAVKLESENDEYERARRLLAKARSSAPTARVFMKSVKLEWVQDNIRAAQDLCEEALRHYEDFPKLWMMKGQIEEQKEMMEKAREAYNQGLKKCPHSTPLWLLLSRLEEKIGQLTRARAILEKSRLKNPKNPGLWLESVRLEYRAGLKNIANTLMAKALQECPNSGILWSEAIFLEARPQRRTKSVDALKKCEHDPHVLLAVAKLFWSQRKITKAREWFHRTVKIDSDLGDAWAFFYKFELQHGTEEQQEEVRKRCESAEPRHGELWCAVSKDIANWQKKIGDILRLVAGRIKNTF
Described as above.

In assay [3] the target is T3, SNRNP200 N-terminal helicase cassette (SNRNP200^NC) (human) (UniProt O75643).
T3 sequence: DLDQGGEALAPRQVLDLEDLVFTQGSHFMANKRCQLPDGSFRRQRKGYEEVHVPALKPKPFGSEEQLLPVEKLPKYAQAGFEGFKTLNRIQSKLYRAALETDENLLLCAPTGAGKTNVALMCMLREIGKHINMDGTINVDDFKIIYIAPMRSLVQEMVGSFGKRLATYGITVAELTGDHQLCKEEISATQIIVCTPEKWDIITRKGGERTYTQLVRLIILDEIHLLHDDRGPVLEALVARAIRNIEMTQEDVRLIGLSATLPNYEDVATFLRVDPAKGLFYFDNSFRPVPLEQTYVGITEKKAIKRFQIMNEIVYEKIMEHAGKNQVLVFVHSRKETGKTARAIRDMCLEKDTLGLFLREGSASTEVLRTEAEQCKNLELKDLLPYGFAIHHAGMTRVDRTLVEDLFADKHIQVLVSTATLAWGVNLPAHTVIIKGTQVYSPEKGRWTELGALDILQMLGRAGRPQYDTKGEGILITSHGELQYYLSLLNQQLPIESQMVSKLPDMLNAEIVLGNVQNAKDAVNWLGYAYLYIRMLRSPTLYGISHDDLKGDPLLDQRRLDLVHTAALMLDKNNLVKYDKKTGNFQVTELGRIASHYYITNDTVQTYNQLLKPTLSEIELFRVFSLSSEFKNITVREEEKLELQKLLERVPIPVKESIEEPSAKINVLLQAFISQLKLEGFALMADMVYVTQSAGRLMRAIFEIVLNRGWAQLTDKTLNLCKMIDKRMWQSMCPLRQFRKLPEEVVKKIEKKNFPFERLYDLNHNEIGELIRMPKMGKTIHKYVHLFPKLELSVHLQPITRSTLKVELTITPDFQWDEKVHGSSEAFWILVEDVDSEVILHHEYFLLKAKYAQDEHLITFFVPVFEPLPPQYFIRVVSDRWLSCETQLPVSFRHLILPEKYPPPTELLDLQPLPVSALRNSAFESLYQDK
The description is as above.

The target in assay [4] is C-terminally Flag-tagged TSSC4 (TSSC4^wt-Flag), transiently expressed (human) (UniProt Q9Y5U2). Kind of assay: co-IP; Flag-IP (Flag M2 affinity gel) from 100 μg nuclear extract of transiently transfected HEK293 cells, RIPA buffer with 100 mM NaCl, 2% BSA, overnight 4°C; Western blot with anti-SNRNP200 serum. (In general: Immunoblotting shows a protein as a band on a membrane.)

Results are given in words; binding and its absence hold for the method and conditions named. For some of these results: Binding seen in cells or lysates may run through a third protein. Some entries that bind do so weakly or less than the wild type.

On to “His6-GST-TSSC4 (wild type) (from UniProt Q9Y5U2 1-329)”, for which the binding entry in assay [1], in assay [2] and in assay [3] was “no binding” each time.

Consider “SNRNP200 (endogenous) (from UniProt O75643 1-2136) (enzyme)”, for which the binding result in assay [4] is “binds”.

The record behind these values is publication PMC8934646.
